Source: article doi:10.1101/2022.07.19.500578
These are yes or no findings as the source states them, for the method shown. In cells and extracts the contact can be indirect.

Protein sequences, listed by entry. Tags and fused reporters are not part of them. Lines headed by an entry give the natural chain unless they say otherwise; changes in a name come on top. Residues count along the entry.
UniProt Q13467, 27-585, stated change not applied: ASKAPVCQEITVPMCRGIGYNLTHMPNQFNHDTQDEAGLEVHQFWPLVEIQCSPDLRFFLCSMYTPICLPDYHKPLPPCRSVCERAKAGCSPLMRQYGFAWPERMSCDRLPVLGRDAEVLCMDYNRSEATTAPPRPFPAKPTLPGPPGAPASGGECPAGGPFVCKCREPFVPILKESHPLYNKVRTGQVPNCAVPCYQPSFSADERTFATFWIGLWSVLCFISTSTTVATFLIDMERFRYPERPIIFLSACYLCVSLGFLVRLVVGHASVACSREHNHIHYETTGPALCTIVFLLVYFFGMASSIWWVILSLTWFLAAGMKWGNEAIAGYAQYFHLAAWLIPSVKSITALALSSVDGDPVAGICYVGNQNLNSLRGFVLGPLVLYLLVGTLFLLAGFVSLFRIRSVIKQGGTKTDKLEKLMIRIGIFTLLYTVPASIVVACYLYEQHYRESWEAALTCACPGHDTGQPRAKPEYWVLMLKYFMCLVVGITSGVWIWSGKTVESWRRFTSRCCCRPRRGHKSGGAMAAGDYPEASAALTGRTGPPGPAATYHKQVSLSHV

Target: HA-FZD5-Nluc (UniProt Q13467)
Test: FRET or BRET

binding: no binding
Substance: ΔDEP Venus-DVL2 (from UniProt O14641)
